Where a name gives a salt, the structure may show the parent alone. ± gives the standard deviation of the averaged measurements. Some of the results follow. Many values rest on one well or one pass, so single values are uncertain.
Tested on: RAW 264.7
Assay: cell viability (MTT) relative to vehicle control; higher = more viable cells
Conditions: stimulus: HMGB1 5 ug/ml, 18 h
[1] = compound concentration: 1 ug/ml

Row | SMILES | cell viability (compound concentration: 3 uM) [%] | cell viability [1] [%]
1 | CCn1cc(C(=O)O)c(=O)c2cc(F)c(N3CCNC(C)C3)c(F)c21 (stereo not drawn) [Lomefloxacin] | 102 | –
2 | CCn1cc(C(=O)O)c(=O)c2cc(F)c(N3CCNC(C)C3)c(F)c21 (stereo not drawn) | 103 | –
3 | CCn1cc(C(=O)O)c(=O)c2cc(F)c(N3CCNC(C)C3)c(F)c21 (stereo not drawn) [Lomefloxacin hydrochloride] | 112 ± 23 | –
4 | O=c1ccc2c(OCCCCc3ccccc3)c3ccoc3cc2o1 [Psora-4] | 94.2 | –
5 | CNNCc1ccc(C(=O)NC(C)C)cc1 [Procarbazine] | 102 | –
6 | CNNCc1ccc(C(=O)NC(C)C)cc1 [Procarbazine hydrochloride] | 95.6 | –
7 | CNNCc1ccc(C(=O)NC(C)C)cc1 | 93.6 | –
8 | Nc1ccc(C(=O)Oc2ccccc2)c(O)c1 | 115 | –
9 | O=c1[nH]c(=O)n([C@H]2C[C@H](O)[C@@H](CO)O2)cc1F | 95.53 ± 0.88 | –
10 | O=c1[nH]c(=O)n([C@H]2C[C@H](O)[C@@H](CO)O2)cc1F [Floxuridine] | 102 ± 5.8 | –
11 | CN(C)CCC=C1c2ccccc2C=Cc2ccccc21 [Cyclobenzaprine hydrochloride] | 105 ± 18 | –
12 | CN(C)CCC=C1c2ccccc2C=Cc2ccccc21 | 111 | –
13 | CN(C)CCc1c[nH]c2ccc(C[C@H]3COC(=O)N3)cc12 [Zolmitriptan] | 97.53 ± 0.25 | –
14 | CN(C)CCc1c[nH]c2ccc(C[C@H]3COC(=O)N3)cc12 | 109 | –
15 | COc1cc(/C=C/C(=O)O)ccc1O | 98.8 | –
16 | C[N+]1(C)CCC(=C(c2ccccc2)c2ccccc2)CC1 [Diphemanil methylsulfate] | 110 | –
17 | NS(=O)(=O)c1cc2c(cc1Cl)NCNS2(=O)=O | 101 | –
18 | NS(=O)(=O)c1cc2c(cc1Cl)NCNS2(=O)=O [Hydrochlorothiazide] | 101 ± 12 | –
19 | CC(C)OC(=O)CCC/C=C\C[C@@H]1[C@@H](CC[C@@H](O)CCc2ccccc2)[C@H](O)C[C@@H]1O | 96.5 | –
20 | CC(C)OC(=O)CCC/C=C\C[C@@H]1[C@@H](CC[C@@H](O)CCc2ccccc2)[C@H](O)C[C@@H]1O [Latanoprost] | 113 | –
21 | COc1cc(C)c(/C=C/C(C)=C/C=C/C(C)=C/C(=O)O)c(C)c1C [Acitretin] | 115 | –

Row | SMILES | cell viability (compound concentration: 3 uM) [%] | cell viability [1] [%]
22 | C[C@@H]1C(=O)O[C@H]2C[C@@]34[C@H]5C[C@@H](C(C)(C)C)[C@]36[C@@H](OC(=O)[C@@H]6O)O[C@@]4(C(=O)O5)[C@]21O [Ginkgolide A] | 115 | 98.7
23 | CC(c1cc2ccccc2s1)N(O)C(N)=O (stereo not drawn) | 99.1 ± 3.9 | –
24 | CC(c1cc2ccccc2s1)N(O)C(N)=O (stereo not drawn) [Zileuton] | 111 ± 4.5 | –
25 | CC(=O)Oc1cc(C(C)C)c(OCCN(C)C)cc1C | 111 | –
26 | CC(=O)Oc1cc(C(C)C)c(OCCN(C)C)cc1C [Moxisylyte hydrochloride] | 103 | –
27 | CC(=O)Oc1cc(C(C)C)c(OCCN(C)C)cc1C [Moxisylyte hydrochoride] | 98.4 | –
28 | O=C(O)c1cc(O)c2c(c1)[C@H]([C@H]1c3cc(C(=O)O)cc(O)c3C(=O)c3c(O[C@@H]4O[C@H](CO)[C@@H](O)[C@H](O)[C@H]4O)cccc31)c1cccc(O[C@@H]3O[C@H](CO)[C@@H](O)[C@H](O)[C@H]3O)c1C2=O | 112 | –
29 | Nc1ncnc2c1ncn2[C@@H]1O[C@H](COP(=O)(O)O)[C@@H](O)[C@H]1O | 104 | –
30 | CCC(=O)O[C@H]1[C@H](O[C@@H]2[C@@H](C)[C@H](O[C@H]3C[C@@](C)(OC)[C@@H](O)[C@H](C)O3)[C@@H](C)C(=O)O[C@H](CC)[C@@](C)(O)[C@H](O)[C@@H](C)C(=O)[C@H](C)C[C@@]2(C)O)O[C@H](C)C[C@@H]1N(C)C | 108 | –
31 | CC1=C(/C=C/C(C)=C/C=C/C(C)=C/C(=O)Nc2ccc(O)cc2)C(C)(C)CCC1 [Retinoic acid p-hydroxyanilide] | 105 | –
32 | CC1=C(/C=C/C(C)=C/C=C/C(C)=C/C(=O)Nc2ccc(O)cc2)C(C)(C)CCC1 | 104 | –
33 | CC1=C(/C=C/C(C)=C/C=C/C(C)=C/C(=O)Nc2ccc(O)cc2)C(C)(C)CCC1 [Fenretinide] | 113 | –
34 | CC(=O)OCC(=O)[C@@]1(O)CC[C@H]2[C@@H]3CCC4=CC(=O)C=C[C@]4(C)[C@@]3(F)[C@@H](O)C[C@@]21C [Isoflupredone acetate] | 99.1 | –
35 | CC(=O)OCC(=O)[C@@]1(O)CC[C@H]2[C@@H]3CCC4=CC(=O)CC[C@]4(C)[C@H]3C(=O)C[C@@]21C [Cortisone 21-acetate] | 102 | –
36 | CC(=O)OCC(=O)[C@@]1(O)CC[C@H]2[C@@H]3CCC4=CC(=O)CC[C@]4(C)[C@H]3C(=O)C[C@@]21C [cortisone 21-acetate] | – | 107
37 | CC(=O)OCC(=O)[C@@]1(O)CC[C@H]2[C@@H]3CCC4=CC(=O)CC[C@]4(C)[C@H]3C(=O)C[C@@]21C | 98.5 | –
38 | COc1cc(C(=O)N2CCOCC2)cc(OC)c1OC | 106 | –
39 | CNCC[C@H](Oc1ccc(C(F)(F)F)cc1)c1ccccc1 [S-(+)-Fluoxetine hydrochloride] | 103 | –
40 | CCCCC(=O)O[C@]1(C(=O)CO)[C@@H](C)C[C@H]2[C@@H]3CCC4=CC(=O)C=C[C@]4(C)[C@@]3(F)[C@@H](O)C[C@@]21C | 119 | –
41 | O=c1cc(-c2ccccc2O)oc2cc(O)cc(O)c12 [5,7,2'-Trihydroxyflavone] | – | 79.6
42 | S=C=Nc1ccc(N=C=S)cc1 | 113 | –

Row | SMILES | cell viability (compound concentration: 3 uM) [%] | cell viability [1] [%]
43 | Cn1cc(C(=O)OCC2CCN(CCNS(C)(=O)=O)CC2)c2ccccc21 | 106 | –
44 | C#C[C@]1(O)CC[C@H]2[C@@H]3[C@H](C)CC4=C(CCC(=O)C4)[C@H]3CC[C@@]21C | 98.3 | –
45 | C#C[C@]1(O)CC[C@H]2[C@@H]3[C@H](C)CC4=C(CCC(=O)C4)[C@H]3CC[C@@]21C [Tibolone] | 99.205 ± 0.092 | –
46 | CN(C)CCCOc1nn(Cc2ccccc2)c2ccccc12 [Benzydamine hydrochloride] | 112 | –
47 | CN(C)CCCOc1nn(Cc2ccccc2)c2ccccc12 [Benzydamine] | 86.2 | –
48 | CN(C)CCCOc1nn(Cc2ccccc2)c2ccccc12 | 95.8 | –
49 | O=C1c2c(O)cc(O)cc2OC(c2ccc(O)c(O)c2)C1O (stereo not drawn) | – | 92.6
50 | O=C1c2c(O)cc(O)cc2O[C@H](c2ccc(O)c(O)c2)[C@H]1O | 99.7 | –
51 | O=C1c2c(O)cc(O)cc2O[C@H](c2ccc(O)c(O)c2)[C@H]1O (racemic) | 98.3 | –
52 | O=C1c2ccccc2C(=O)c2c(NCCc3ccc(O)cc3)ccc(NCCc3ccc(O)cc3)c21 | 96.8 | –
53 | CC1CCN=C(N)S1 (racemic) [(±)-AMT hydrochloride] | 111 | –
54 | Nc1ccc(S(=O)(=O)Nc2ccc(Cl)nn2)cc1 [Sulfachloropyridazine] | 103 | –
55 | Nc1ccc(S(=O)(=O)Nc2ccc(Cl)nn2)cc1 | 113 | –
56 | Cc1nc(N=Nc2ccc(C(=O)O)cc2)c(COP(=O)(O)O)c(C=O)c1O | 102 | –
57 | CC1CCC(NC(=O)N(CCCl)N=O)CC1 (stereo not drawn) | 90.4 ± 18 | –
58 | COc1cc2nc(N3CCN(C(=O)C4CCCO4)CC3)nc(N)c2cc1OC (stereo not drawn) [Terazosin] | 90 ± 7.3 | –
59 | COc1cc2nc(N3CCN(C(=O)C4CCCO4)CC3)nc(N)c2cc1OC (stereo not drawn) | 104 | –
60 | COc1cc2nc(N3CCN(C(=O)C4CCCO4)CC3)nc(N)c2cc1OC (stereo not drawn) [Terazosin hydrochloride] | 123 ± 15 | –
61 | Oc1ccc(O)cc1 | 106 | –
62 | Oc1ccc(O)cc1 [Hydroquinone] | 108 | –
63 | C[C@H]1C[C@H]2[C@@H]3CCC4=CC(=O)C=C[C@]4(C)[C@@]3(Cl)[C@@H](O)C[C@]2(C)[C@@]1(O)C(=O)CO [Beclomethasone] | 106 ± 3.4 | –

Single values from the entries so far.
Nc1ccc(S(=O)(=O)Nc2ccc(Cl)nn2)cc1 [Sulfachloropyridazine] – cell viability (compound concentration: 3 uM) [%]: 103
O=C1c2c(O)cc(O)cc2OC(c2ccc(O)c(O)c2)C1O (stereo not drawn) – cell viability [1] [%]: 92.6
Cc1nc(N=Nc2ccc(C(=O)O)cc2)c(COP(=O)(O)O)c(C=O)c1O – cell viability (compound concentration: 3 uM) [%]: 102

(cont.)

Row | SMILES | cell viability (compound concentration: 3 uM) [%] | cell viability [1] [%]
64 | CC[C@@]1(O)C(=O)OCc2c1cc1n(c2=O)Cc2cc3cc(O)ccc3nc2-1 [10-Hydroxycamptothecin] | 47 | –
65 | CC[C@@]1(O)C(=O)OCc2c1cc1n(c2=O)Cc2cc3cc(O)ccc3nc2-1 | 64.2 | –
66 | Cc1cccc(-c2[nH]c(C(C)(C)C)nc2-c2ccc3nccnc3c2)n1 | 93.2 | –
67 | CC[N+](CC)(CC)CC [Tetraethylammonium chloride] | 118 | –
68 | COc1ccc(CCN(C)CCc2ccc(OC)c(OC)c2)cc1OC [YS-035 hydrochloride] | 110 | –
69 | CC(=O)O[C@]1(C(C)=O)CC[C@H]2[C@@H]3C=C(C)C4=CC(=O)CC[C@@H]4[C@H]3CC[C@@]21C [Nomegestrol acetate] | 82.3 | –
70 | Cc1ccccc1/C=C/C1=NCCN1 [Metrazoline oxalate] | 103 | –
71 | O=C1NC(=O)/C(=C/c2ccc(-c3ccc(F)cc3O)o2)S1 | 97.6 | –
72 | O=C1C(CC[S+]([O-])c2ccccc2)C(=O)N(c2ccccc2)N1c1ccccc1 (stereo not drawn) [Sulfinpyrazone] | 90.6 | –
73 | O=C1C(CC[S+]([O-])c2ccccc2)C(=O)N(c2ccccc2)N1c1ccccc1 (stereo not drawn) | 102 | –
74 | CC(=O)OC/C=C(C)/C=C/C=C(C)/C=C/C1=C(C)CCCC1(C)C [Vitamin A acetate] | 107 | –
75 | CC(=O)OC/C=C(C)/C=C/C=C(C)/C=C/C1=C(C)CCCC1(C)C | 108 | –
76 | Clc1ccc2c(c1)N=C(N1CCNCC1)c1ccccc1N2 [N-Desmethylclozapine] | 88.3 | –
77 | NS(=O)(=O)c1cc2c(cc1Cl)N=C(CSCc1ccccc1)NS2(=O)=O | 107 | –
78 | NS(=O)(=O)c1cc2c(cc1Cl)N=C(CSCc1ccccc1)NS2(=O)=O [Benzthiazide] | 109 | –
79 | CS(=O)(=O)c1ccc([C@@H](O)[C@@H](CO)NC(=O)C(Cl)Cl)cc1 | 102 | –
80 | CS(=O)(=O)c1ccc([C@@H](O)[C@@H](CO)NC(=O)C(Cl)Cl)cc1 [Thiamphenicol] | 96 | –
81 | CC(C)Cc1ccc([C@H](C)C(=O)O)cc1 [S(+)-Ibuprofen] | 99.7 | –
82 | CC(C)Cc1ccc([C@H](C)C(=O)O)cc1 [S-(+)-ibuprofen] | 111 | –
